The other results are listed elsewhere or left out.
How the values were obtained:
Assay in all cases: log2 fold change, soluble protein after heating vs DMSO (PISA); higher = thermal stabilisation; K562 lysate, 10 uM; active = over 0.2 and 3.5 SD of the protein, either way, in both replicates (recomputed)
nilotinib = compound: Cc1cn(-c2cc(NC(=O)c3ccc(C)c(Nc4nccc(-c5cccnc5)n4)c3)cc(C(F)(F)F)c2)cn1 [nilotinib]
Summary of the method: (§1)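 Quantification was by TMTpro 16plex LC-MS/MS with equalised channel sums, applied to the supernatant after 21,000xg for 90 min. Samples were crude K562 extract at 1 mg/mL protein in PBS pH 7.4 with 1 mM MgCl2, treated with 10 μM compound for 30 min, heated for 3 min across 48°C-58°C, pooled and brought to 0.5% NP-40 at 4°C. Values are log-two fold changes in thermal stability relative to solvent controls, from duplicates.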

Protein sequences, listed by entry. Tags and fused reporters are not part of them. Lines headed by an entry give the natural chain unless they say otherwise; changes in a name come on top.
UniProt O75419: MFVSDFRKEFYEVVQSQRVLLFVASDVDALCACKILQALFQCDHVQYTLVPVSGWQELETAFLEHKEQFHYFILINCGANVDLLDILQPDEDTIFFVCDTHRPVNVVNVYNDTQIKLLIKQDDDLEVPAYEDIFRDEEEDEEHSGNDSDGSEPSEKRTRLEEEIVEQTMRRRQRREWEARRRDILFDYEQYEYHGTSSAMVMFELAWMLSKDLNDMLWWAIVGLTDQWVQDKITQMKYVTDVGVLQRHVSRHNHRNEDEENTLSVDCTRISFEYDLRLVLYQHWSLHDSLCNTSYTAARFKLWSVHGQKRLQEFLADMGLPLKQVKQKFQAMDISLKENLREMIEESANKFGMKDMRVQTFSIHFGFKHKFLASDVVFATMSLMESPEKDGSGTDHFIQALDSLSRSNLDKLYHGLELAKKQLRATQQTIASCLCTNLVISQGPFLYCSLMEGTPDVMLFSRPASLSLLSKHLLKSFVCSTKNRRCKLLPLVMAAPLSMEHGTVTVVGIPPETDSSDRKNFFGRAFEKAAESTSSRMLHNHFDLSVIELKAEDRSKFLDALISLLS
UniProt P50750, whole entry, looked up: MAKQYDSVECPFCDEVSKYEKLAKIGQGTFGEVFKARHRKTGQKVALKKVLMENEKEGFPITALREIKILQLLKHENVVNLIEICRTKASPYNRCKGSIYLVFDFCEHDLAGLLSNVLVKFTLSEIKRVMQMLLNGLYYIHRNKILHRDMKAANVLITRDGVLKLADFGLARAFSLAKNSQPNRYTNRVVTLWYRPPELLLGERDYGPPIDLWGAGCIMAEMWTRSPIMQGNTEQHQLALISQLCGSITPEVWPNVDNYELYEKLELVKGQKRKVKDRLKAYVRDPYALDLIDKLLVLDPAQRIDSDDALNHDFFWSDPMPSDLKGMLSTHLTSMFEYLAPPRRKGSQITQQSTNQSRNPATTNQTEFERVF
UniProt P49918: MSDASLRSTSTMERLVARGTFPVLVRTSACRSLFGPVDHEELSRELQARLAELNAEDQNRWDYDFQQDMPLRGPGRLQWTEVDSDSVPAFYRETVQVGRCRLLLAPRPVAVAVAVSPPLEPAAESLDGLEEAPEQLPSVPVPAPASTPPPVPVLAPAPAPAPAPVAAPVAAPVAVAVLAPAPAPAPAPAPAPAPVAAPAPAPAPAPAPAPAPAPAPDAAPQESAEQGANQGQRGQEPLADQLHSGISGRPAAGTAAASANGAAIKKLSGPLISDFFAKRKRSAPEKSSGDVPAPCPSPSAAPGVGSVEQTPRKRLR
UniProt Q6DT37: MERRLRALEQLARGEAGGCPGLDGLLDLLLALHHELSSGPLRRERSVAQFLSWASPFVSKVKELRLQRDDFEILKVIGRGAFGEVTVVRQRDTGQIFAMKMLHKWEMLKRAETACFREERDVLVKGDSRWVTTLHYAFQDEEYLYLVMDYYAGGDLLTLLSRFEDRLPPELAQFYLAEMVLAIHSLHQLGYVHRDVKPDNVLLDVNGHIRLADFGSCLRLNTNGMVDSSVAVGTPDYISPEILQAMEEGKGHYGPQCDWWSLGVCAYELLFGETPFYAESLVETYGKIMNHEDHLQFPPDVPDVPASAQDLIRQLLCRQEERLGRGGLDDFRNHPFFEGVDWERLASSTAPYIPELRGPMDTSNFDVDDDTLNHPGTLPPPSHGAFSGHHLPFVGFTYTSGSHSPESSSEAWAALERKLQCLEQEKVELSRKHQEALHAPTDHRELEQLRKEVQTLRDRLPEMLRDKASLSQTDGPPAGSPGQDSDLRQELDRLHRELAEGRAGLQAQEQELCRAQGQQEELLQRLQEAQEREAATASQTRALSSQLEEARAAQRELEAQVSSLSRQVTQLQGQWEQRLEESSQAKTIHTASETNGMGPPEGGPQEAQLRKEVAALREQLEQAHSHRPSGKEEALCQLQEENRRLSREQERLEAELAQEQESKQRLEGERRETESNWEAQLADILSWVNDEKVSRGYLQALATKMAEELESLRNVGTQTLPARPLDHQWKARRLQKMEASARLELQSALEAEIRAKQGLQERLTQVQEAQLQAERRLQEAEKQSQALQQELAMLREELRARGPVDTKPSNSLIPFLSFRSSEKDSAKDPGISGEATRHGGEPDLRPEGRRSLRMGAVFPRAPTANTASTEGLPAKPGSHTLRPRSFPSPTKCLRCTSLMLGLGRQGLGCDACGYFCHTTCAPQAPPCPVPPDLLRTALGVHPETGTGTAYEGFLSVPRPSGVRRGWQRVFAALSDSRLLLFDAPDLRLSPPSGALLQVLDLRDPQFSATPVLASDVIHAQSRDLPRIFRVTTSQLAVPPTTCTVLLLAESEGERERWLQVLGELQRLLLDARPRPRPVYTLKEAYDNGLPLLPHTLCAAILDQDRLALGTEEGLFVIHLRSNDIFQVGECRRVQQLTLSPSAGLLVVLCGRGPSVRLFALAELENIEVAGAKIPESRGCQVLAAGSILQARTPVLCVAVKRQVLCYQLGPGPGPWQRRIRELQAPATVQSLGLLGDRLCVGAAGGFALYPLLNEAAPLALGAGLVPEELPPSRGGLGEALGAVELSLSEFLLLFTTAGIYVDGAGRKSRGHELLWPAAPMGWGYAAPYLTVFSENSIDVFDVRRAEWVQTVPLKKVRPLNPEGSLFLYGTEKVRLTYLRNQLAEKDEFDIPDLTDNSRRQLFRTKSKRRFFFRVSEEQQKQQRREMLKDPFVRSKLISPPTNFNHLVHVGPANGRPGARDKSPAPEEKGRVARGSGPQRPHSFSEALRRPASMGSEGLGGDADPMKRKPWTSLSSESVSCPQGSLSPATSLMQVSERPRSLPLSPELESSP
UniProt P57076: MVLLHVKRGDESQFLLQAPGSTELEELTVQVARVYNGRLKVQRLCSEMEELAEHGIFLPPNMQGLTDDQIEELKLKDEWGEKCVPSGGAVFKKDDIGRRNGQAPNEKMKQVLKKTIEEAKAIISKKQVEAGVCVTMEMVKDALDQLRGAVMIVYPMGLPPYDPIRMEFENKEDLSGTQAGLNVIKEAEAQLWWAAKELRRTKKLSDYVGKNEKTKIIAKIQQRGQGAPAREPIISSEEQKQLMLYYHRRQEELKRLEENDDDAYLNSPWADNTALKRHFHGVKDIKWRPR
UniProt Q8TCZ2: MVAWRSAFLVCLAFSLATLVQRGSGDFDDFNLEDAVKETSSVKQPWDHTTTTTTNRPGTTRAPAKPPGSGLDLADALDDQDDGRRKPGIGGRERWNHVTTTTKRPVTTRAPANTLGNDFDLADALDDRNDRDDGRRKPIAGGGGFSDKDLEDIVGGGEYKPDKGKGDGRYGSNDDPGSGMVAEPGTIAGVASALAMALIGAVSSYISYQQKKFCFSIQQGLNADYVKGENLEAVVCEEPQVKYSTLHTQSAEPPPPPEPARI
UniProt Q92879: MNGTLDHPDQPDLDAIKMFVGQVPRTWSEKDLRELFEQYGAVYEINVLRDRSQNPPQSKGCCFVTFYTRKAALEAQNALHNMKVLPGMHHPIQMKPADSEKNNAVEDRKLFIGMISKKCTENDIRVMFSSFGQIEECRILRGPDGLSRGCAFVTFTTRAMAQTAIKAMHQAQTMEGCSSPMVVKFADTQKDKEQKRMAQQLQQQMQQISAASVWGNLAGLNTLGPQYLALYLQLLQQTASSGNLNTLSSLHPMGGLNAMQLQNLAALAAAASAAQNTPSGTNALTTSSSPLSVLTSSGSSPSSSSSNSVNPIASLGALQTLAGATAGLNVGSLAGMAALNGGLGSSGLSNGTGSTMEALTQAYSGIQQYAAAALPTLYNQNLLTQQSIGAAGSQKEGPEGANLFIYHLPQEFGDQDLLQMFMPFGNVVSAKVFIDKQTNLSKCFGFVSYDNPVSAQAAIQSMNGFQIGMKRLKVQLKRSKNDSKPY
UniProt O75794: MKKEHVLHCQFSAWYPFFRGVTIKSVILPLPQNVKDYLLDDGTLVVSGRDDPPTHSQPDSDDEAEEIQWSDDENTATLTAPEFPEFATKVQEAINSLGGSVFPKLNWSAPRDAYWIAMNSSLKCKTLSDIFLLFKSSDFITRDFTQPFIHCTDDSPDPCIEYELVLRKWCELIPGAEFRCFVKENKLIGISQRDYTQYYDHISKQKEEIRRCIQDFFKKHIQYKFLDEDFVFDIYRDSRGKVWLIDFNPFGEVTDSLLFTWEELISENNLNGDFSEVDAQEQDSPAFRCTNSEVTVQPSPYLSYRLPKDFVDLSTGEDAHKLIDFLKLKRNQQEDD
UniProt Q96FF9: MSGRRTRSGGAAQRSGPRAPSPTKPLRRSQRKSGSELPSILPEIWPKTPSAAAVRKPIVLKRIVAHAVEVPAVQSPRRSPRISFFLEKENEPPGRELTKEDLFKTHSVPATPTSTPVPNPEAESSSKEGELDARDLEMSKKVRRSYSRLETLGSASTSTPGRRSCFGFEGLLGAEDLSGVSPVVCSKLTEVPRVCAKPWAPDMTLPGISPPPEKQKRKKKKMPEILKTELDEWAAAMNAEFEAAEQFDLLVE
UniProt P49336: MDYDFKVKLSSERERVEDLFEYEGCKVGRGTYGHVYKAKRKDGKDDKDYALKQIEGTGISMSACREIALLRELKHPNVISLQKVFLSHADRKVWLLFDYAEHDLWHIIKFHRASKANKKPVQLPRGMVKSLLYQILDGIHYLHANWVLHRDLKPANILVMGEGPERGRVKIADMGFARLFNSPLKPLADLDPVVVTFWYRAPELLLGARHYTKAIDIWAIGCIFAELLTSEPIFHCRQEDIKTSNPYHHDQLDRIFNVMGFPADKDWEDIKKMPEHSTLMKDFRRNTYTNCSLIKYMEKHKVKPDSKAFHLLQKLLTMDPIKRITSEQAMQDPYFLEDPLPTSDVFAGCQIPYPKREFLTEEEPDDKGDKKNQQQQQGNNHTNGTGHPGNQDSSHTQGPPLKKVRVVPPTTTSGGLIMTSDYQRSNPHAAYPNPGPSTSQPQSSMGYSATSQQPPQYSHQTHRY
UniProt P30305: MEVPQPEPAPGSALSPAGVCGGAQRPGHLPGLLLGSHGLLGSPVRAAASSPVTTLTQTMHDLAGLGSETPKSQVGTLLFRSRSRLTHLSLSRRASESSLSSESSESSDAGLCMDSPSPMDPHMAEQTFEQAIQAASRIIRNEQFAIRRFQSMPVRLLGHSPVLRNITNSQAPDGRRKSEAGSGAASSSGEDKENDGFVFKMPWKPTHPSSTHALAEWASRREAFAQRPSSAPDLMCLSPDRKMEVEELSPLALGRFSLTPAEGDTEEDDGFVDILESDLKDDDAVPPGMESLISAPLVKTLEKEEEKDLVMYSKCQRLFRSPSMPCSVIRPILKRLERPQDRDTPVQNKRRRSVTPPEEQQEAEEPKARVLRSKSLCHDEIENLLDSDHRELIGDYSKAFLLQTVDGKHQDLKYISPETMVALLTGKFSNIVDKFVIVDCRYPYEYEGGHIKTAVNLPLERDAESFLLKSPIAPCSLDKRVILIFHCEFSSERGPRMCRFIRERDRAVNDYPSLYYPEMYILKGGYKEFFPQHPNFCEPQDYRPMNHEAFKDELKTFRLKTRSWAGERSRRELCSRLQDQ
UniProt Q8TAP6: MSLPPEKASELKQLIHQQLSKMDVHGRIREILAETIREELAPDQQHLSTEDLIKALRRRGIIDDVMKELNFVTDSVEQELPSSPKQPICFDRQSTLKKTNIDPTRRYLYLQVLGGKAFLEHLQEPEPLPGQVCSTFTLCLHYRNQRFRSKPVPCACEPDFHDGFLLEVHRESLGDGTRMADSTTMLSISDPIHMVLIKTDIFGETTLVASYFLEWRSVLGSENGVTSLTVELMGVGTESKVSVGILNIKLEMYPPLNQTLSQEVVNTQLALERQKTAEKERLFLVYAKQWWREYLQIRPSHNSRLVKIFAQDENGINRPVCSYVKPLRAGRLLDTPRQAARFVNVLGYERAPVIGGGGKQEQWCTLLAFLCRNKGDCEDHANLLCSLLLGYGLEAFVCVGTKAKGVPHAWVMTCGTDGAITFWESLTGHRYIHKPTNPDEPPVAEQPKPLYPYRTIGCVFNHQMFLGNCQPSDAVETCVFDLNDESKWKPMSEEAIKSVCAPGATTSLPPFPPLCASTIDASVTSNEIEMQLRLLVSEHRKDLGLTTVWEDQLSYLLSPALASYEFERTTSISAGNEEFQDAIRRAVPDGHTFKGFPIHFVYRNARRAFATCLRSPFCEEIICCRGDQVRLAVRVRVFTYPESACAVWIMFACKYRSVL
UniProt Q00587: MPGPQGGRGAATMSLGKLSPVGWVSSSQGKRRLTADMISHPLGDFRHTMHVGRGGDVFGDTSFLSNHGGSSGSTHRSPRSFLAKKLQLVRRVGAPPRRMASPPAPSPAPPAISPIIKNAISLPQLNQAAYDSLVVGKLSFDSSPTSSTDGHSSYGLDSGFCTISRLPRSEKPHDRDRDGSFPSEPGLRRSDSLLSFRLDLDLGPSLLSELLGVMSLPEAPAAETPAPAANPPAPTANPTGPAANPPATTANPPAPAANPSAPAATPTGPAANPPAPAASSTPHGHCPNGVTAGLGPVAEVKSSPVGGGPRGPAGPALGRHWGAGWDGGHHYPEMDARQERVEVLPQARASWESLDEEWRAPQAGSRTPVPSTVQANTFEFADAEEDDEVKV

[1] = compound: Cc1nc(Nc2n[nH]c3c2CN(C(=O)N[C@H](CN(C)C)c2ccccc2)C3(C)C)c2sccc2n1
Summary of the method: as §1

dasatinib = compound: Cc1nc(Nc2ncc(C(=O)Nc3c(C)cccc3Cl)s2)cc(N2CCN(CCO)CC2)n1 [dasatinib]
Summary of the method: as §1

[2] = compound: Cc1ncc(-c2ccnc(Nc3ccc(S(C)(=O)=O)cc3)n2)n1C(C)C
Summary of the method: as §1

[3] = compound: Cn1cc(-c2ccc3c(c2)CCN3C(=O)Cc2cccc(C(F)(F)F)c2)c2c(N)ncnc21
Summary of the method: as §1

quisinostat = compound: Cn1cc(CNCC2CCN(c3ncc(C(=O)NO)cn3)CC2)c2ccccc21 [quisinostat]
Summary of the method: as §1

tipifarnib = compound: Cn1cncc1[C@@](N)(c1ccc(Cl)cc1)c1ccc2c(c1)c(-c1cccc(Cl)c1)cc(=O)n2C [tipifarnib]
Summary of the method: as §1

[4] = compound: NC(=O)Nc1cc(-c2cccc(F)c2)sc1C(=O)N[C@H]1CCCNC1
Summary of the method: as §1

[5] = compound: NC(=O)c1cnc(N[C@@H]2CCCC[C@@H]2N)nc1Nc1cccc(-n2nccn2)c1
Summary of the method: as §1

[6] = compound: NC1(c2ccc(-c3nc4ccn5c(=O)[nH]nc5c4cc3-c3ccccc3)cc2)CCC1
Summary of the method: as §1

| Target | log2 fold change (nilotinib) | log2 fold change [1] | log2 fold change (dasatinib) | log2 fold change [2] | log2 fold change [3] | log2 fold change (quisinostat) | log2 fold change (tipifarnib) | log2 fold change [4] | log2 fold change [5] | log2 fold change [6] |
| --- | --- | --- | --- | --- | --- | --- | --- | --- | --- | --- |
| CDKN2AIP (UniProt Q9NXV6) | inactive: 0.002 | inactive: -0.023 | inactive: -0.004 | inactive: -0.008 | inactive: -0.014 | inactive: -0.031 | inactive: 0.005 | inactive: 0.008 | inactive: -0.01 | inactive: 0.001 |
| CDC45 isoform 3 (UniProt O75419) | inactive: -0.022 | inactive: 0.013 | inactive: -0.044 | inactive: -0.003 | inactive: 0.038 | inactive: 0.015 | inactive: -0.022 | inactive: 0.047 | inactive: 0.003 | inactive: -0.058 |
| CDK9 isoform 2 (UniProt P50750) | inactive: -0.035 | inactive: 0.255 | inactive: 0.003 | active: 0.403 | inactive: -0.007 | inactive: -0.028 | inactive: -0.016 | inactive: 0.009 | inactive: 0.078 | inactive: -0.04 |
| CEP135 (UniProt Q66GS9) | inactive: -0.015 | inactive: 0.067 | inactive: -0.057 | inactive: -0.008 | inactive: 0.01 | inactive: -0.097 | inactive: -0.02 | inactive: 0.052 | inactive: -0.022 | inactive: -0.031 |
| CDC25C (UniProt P30307) | inactive: 0.039 | inactive: -0.037 | inactive: 0.042 | inactive: -0.048 | inactive: 0.004 | inactive: 0.056 | inactive: -0.004 | inactive: 0.025 | inactive: 0.015 | inactive: 0.05 |
| CDKN1C (UniProt P49918) | inactive: -0.054 | inactive: -0.035 | inactive: 0.083 | inactive: 0.094 | inactive: 0.055 | inactive: 0.091 | inactive: 0.037 | inactive: -0.091 | inactive: -0.101 | inactive: 0.04 |
| CDC42BPG (UniProt Q6DT37) | inactive: -0.103 | inactive: 0.065 | inactive: -0.005 | inactive: 0.081 | inactive: 0.001 | inactive: -0.046 | inactive: -0.111 | inactive: 0.252 | inactive: -0.012 |  |
| CDC27 (UniProt G5EA36) | inactive: 0.048 | inactive: 0.012 | inactive: 0.025 | inactive: 0.097 | inactive: 0.008 | inactive: -0.094 | inactive: -0.384 | inactive: 0.081 | inactive: -0.281 | inactive: 0.088 |
| CFAP298 (UniProt P57076) | inactive: -0.02 | inactive: -0.008 | inactive: 0 | inactive: 0.027 | inactive: 0.044 | inactive: -0.048 | inactive: -0.009 | inactive: 0.028 | inactive: 0.006 | inactive: -0.009 |
| CD99 (UniProt P14209) | inactive: -0.016 | inactive: -0.018 | inactive: 0.147 | inactive: 0.003 | inactive: -0.058 | inactive: -0.057 | inactive: -0.069 | inactive: 0.054 | inactive: -0.065 | inactive: -0.094 |
| CD99L2 isoform 5 (UniProt Q8TCZ2) | inactive: -0.071 | inactive: -0.04 | inactive: -0.077 | inactive: -0.064 | inactive: 0.107 | inactive: 0.044 | inactive: -0.079 | inactive: 0.036 | inactive: -0.205 | inactive: -0.015 |
| CELF1 isoform 4 (UniProt Q92879) | inactive: -0.022 | inactive: 0.042 | inactive: -0.025 | inactive: 0 | inactive: 0 | inactive: 0.021 | inactive: -0.013 | inactive: 0.037 | inactive: 0.033 | inactive: 0.067 |
| CDC123 (UniProt O75794) | inactive: 0.026 | inactive: -0.011 | inactive: -0.006 | inactive: -0.104 | inactive: 0.033 | inactive: 0.008 | inactive: -0.008 | inactive: 0.022 | inactive: -0.009 | inactive: 0.017 |
| CDK19 (UniProt Q9BWU1) | inactive: 0.205 | inactive: 0.063 | inactive: -0.052 | inactive: -0.505 | inactive: -0.008 | inactive: -0.121 | inactive: 0.413 | inactive: 0.034 | inactive: -0.314 | inactive: -0.105 |
| CEP192 (UniProt Q8TEP8) | inactive: -0.012 | inactive: 0.005 | inactive: 0.027 | inactive: 0.015 | inactive: -0.015 | inactive: 0 | inactive: -0.018 | inactive: 0.009 | inactive: 0.026 | inactive: 0.039 |
| CEP170 (UniProt Q5SW79) | inactive: -0.021 | inactive: -0.022 | inactive: -0.007 | inactive: -0.043 | inactive: 0.022 | inactive: -0.014 | inactive: 0.017 | inactive: -0.081 | inactive: -0.005 | inactive: 0.022 |
| CELF2 isoform 3 (UniProt O95319) | inactive: 0.054 | inactive: 0.038 | inactive: -0.015 | inactive: -0.028 | inactive: -0.043 | inactive: 0.036 | inactive: -0.129 | inactive: -0.037 | inactive: -0.021 | inactive: 0.068 |
| CDC23 (UniProt Q9UJX2) | inactive: 0.017 | inactive: -0.005 | inactive: -0.042 | inactive: -0.05 | inactive: 0.021 | inactive: 0.023 | inactive: 0.053 | inactive: -0.004 | inactive: 0.012 | inactive: 0.003 |
| CDCA5 (UniProt Q96FF9) | inactive: 0.187 | inactive: -0.087 | inactive: -0.145 | inactive: 0.066 | inactive: -0.004 | inactive: -0.102 | inactive: -0.026 | inactive: 0.074 | inactive: 0.075 | inactive: -0.115 |
| CDK8 (UniProt P49336) | inactive: -0.025 | inactive: -0.037 | inactive: -0.054 | inactive: 0.119 | inactive: -0.032 | inactive: -0.05 | inactive: -0.209 | inactive: 0.018 | inactive: -0.006 | inactive: -0.033 |
| CDC37L1 (UniProt Q7L3B6) | inactive: 0.032 | inactive: 0.05 | inactive: -0.034 | inactive: -0.009 | inactive: 0.042 | inactive: -0.043 | inactive: -0.105 | inactive: 0.004 | inactive: 0.006 | inactive: 0.007 |
| CEP85 isoform 2 (UniProt Q6P2H3) | inactive: -0.027 | inactive: 0.027 | inactive: -0.021 | inactive: 0.015 | inactive: -0.003 | inactive: -0.003 | inactive: -0.062 | inactive: 0.049 | inactive: 0.029 | inactive: -0.007 |
| CDC25B (UniProt P30305) | inactive: -0.025 | inactive: -0.047 | inactive: 0.033 | inactive: 0.002 | inactive: 0.031 | inactive: -0.035 | inactive: 0.061 | inactive: -0.049 | inactive: 0.121 | inactive: 0.031 |
| CERS2 (UniProt Q96G23) | inactive: -0.016 | inactive: -0.022 | inactive: 0.056 | inactive: -0.042 | inactive: -0.057 | inactive: -0.125 | inactive: 0.016 | inactive: 0.023 | inactive: 0 | inactive: -0.06 |
| CEP76 (UniProt Q8TAP6) | inactive: -0.005 | inactive: -0.021 | inactive: -0.002 | inactive: -0.021 | inactive: -0.005 | active: -0.241 | inactive: 0.006 | inactive: -0.01 | inactive: -0.015 | inactive: -0.02 |
| CDC42EP1 (UniProt Q00587) | inactive: -0.1 | inactive: 0.148 | inactive: -0.105 | inactive: 0.029 | inactive: -0.18 | inactive: -0.091 | inactive: -0.221 | inactive: 0.031 | inactive: 0 | inactive: 0.089 |
| CDK2AP2 (UniProt O75956) | inactive: 0.015 | inactive: 0.034 | inactive: -0.028 | inactive: 0.088 | inactive: 0.068 | inactive: -0.048 | inactive: 0.096 | inactive: -0.096 | inactive: -0.082 | inactive: 0.021 |

Part of the list above, limited to log2 fold change (quisinostat), log2 fold change [2] and log2 fold change (nilotinib):

| Target | log2 fold change (quisinostat) | log2 fold change [2] | log2 fold change (nilotinib) |
| --- | --- | --- | --- |
| CDKN1C (UniProt P49918) | inactive: 0.091 | inactive: 0.094 | inactive: -0.054 |
| CDC123 (UniProt O75794) | inactive: 0.008 | inactive: -0.104 | inactive: 0.026 |

— the supplement of paper PMC10849652
